doi:10.1101/2024.06.25.600532
These are yes or no findings as the source states them, for the method shown. In cells and extracts the contact can be indirect. Here binding means that the protein was enriched with, or labelled near, the bait; the list need not be complete. One block for each molecule: values may come before it.

Biological target: Flag-tagged LYAR (UniProt Q9NX58)
Experiment: affinity purification with mass spectrometry

binding: binds
Molecule: MEP50 (from UniProt Q9BQA1 1-342)

binding: binds
B1: Fibrillarin (FBL) (protein, UniProt P22087 1-321)
chain: MKPGFSPRGGGFGGRGGFGDRGGRGGRGGFGGGRGRGGGFRGRGRGGGGGGGGGGGGGRGGGGFHSGGNRGRGRGGKRGNQSGKNVMVEPHRHEGVFICRGKEDALVTKNLVPGESVYGEKRVSISEGDDKIEYRAWNPFRSKLAAAILGGVDQIHIKPGAKVLYLGAASGTTVSHVSDIVGPDGLVYAVEFSHRSGRDLINLAKKRTNIIPVIEDARHPHKYRMLIAMVDVIFADVAQPDQTRIVALNAHTFLRNGGHFVISIKANCIDSTASAEAVFASEVKKMQQENMKPQEQLTLEPYERDHAVVVGVYRPPPKVKN
